Results deposited as PubChem BioAssay AID493246 (Drosophila RNAi Screening Center, 2011).
In all, the deposit lists about 21,000 reagents; below is an unselected part of those that have a named target and a result. Of all reagents, 429 (2%) got an active call. 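Values are raw and not normalised between plates; calls rest on per-plate z-scores that were not deposited.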 Entries without a mark were called inactive. The record does not give: the amount of reagent, the time to read-out.

Assay: 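Identify essential fly genes by loss of cell viability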 (primary screen)
System: Drosophila Kc and S2R+ cells
Reagents: long dsRNA against Drosophila genes
Read-out: 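Cell number per well after knock-down, printed as raw plate values; calls were based on per-plate z-scores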
Scale: Kc cell number and S2R+ cell number: higher = more cells remaining
Hit rule: 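Counted as a hit if cell number falls by a z-score of at least 3 within its plate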

| target | amplicon | Kc cell number, rep 1 | Kc cell number, rep 2 | S2R+ cell number, rep 1 | S2R+ cell number, rep 2 |
| --- | --- | --- | --- | --- | --- |
| RnpS1 | DRSC15154 | 1.54e6 | 1.49e6 | 1.17e6 | 1.26e6 |
| CG9215 | DRSC20171 | 1.43e6 | 1.40e6 | 1.05e6 | 1.12e6 |
| CG33506 | DRSC05981 | 1.22e6 | 1.40e6 | 9.78e5 | 1.03e6 |
| promL | DRSC08733 | 9.51e5 | 1.21e6 | 1.12e6 | 7.91e5 |
| atlas | DRSC04183 | 1.72e6 | 1.69e6 | 1.42e6 | 1.34e6 |
| Kdm5 | DRSC03133 | 1.38e6 | 1.40e6 | 6.21e5 | 8.19e5 |
| Saf-B | DRSC16167 | 1.42e6 | 1.48e6 | 9.68e5 | 1.06e6 |
| Ccn | DRSC09504 | 1.42e6 | 1.56e6 | 1.12e6 | 1.24e6 |
| Ccn | DRSC09506 | 1.31e6 | 1.42e6 | 9.73e5 | 1.14e6 |
| Ccn | DRSC10062 | 1.58e6 | 1.53e6 | 1.24e6 | 1.27e6 |
| Ccn | DRSC10063 | 1.54e6 | 1.77e6 | 1.31e6 | 1.51e6 |
| Flacc | DRSC20040 | 1.77e6 | 1.84e6 | 1.03e6 | 1.24e6 |
| psd | DRSC03131 | 1.58e6 | 1.42e6 | 1.12e6 | 1.26e6 |
| CG33752 | DRSC05351 | 1.47e6 | 1.44e6 | 9.80e5 | 1.14e6 |
| CG17362 | DRSC10267 | 1.67e6 | 1.63e6 | 1.20e6 | 1.39e6 |
| Amyrel | DRSC05920 | 1.41e6 | 1.56e6 | 1.19e6 | 1.15e6 |
| chif | DRSC03508 | 1.43e6 | 1.46e6 | 1.41e6 | 1.47e6 |
| Gr61a | DRSC08358 | 1.22e6 | 1.33e6 | 1.08e6 | 1.31e6 |
| Pex16 | DRSC11750 | 1.50e6 | 1.50e6 | 1.35e6 | 1.42e6 |
| Seipin | DRSC18654 | 1.59e6 | 1.56e6 | 1.01e6 | 1.09e6 |
| RpL34b | DRSC16475 | 1.35e6 | 1.31e6 | 1.07e6 | 1.17e6 |
| CG31643 | DRSC00906 | 1.56e6 | 1.61e6 | 1.08e6 | 1.25e6 |
| Cyp6a13 | DRSC07375 | 1.43e6 | 1.48e6 | 1.21e6 | 1.26e6 |
| Vti1b | DRSC16283 | 1.68e6 | 1.64e6 | 1.31e6 | 1.36e6 |
| Vti1b | DRSC16284 | 1.33e6 | 1.31e6 | 1.04e6 | 1.15e6 |
| CG15747 | DRSC19713 | 3.83e5 | – | 6.98e5 | – |

As entered above.
Entry for Ccn [DRSC10063] in “S2R+ cell number, rep 2”: 1.51e6
Vti1b [DRSC16283], S2R+ cell number, rep 1: 1.31e6
CG31643 [DRSC00906], Kc cell number, rep 2 → 1.61e6

Further results follow:
| target | amplicon | Kc cell number, rep 1 | Kc cell number, rep 2 | S2R+ cell number, rep 1 | S2R+ cell number, rep 2 |
| --- | --- | --- | --- | --- | --- |
| par-1 | DRSC05792 | 2.38e5 (active) | – | 4.50e5 | – |
| par-1 | DRSC06098 | 1.55e6 | 1.55e6 | 1.09e6 | 1.16e6 |
| par-1 | DRSC06616 | 1.46e6 | 1.56e6 | 1.05e6 | 9.58e5 |
| par-1 | DRSC07660 | 1.64e6 | 1.49e6 | 9.78e5 | 1.10e6 |
| par-1 | DRSC07661 | 1.50e6 | 1.53e6 | 1.09e6 | 1.18e6 |
| SCCRO | DRSC10844 | 1.54e6 | 1.57e6 | 1.16e6 | 1.49e6 |
| cd | DRSC16157 | 1.44e6 | 1.55e6 | 9.62e5 | 1.11e6 |
| mle | DRSC04921 | 1.49e6 | 1.53e6 | 1.28e6 | 1.31e6 |
| spen | DRSC00839 | 7.52e5 | 8.25e5 | 3.21e5 | 3.77e5 |
| bin | DRSC10332 | 1.61e6 | 1.74e6 | 9.61e5 | 1.08e6 |
| OtopLc | DRSC18082 | 1.49e6 | 1.48e6 | 1.03e6 | 1.11e6 |
| OtopLc | DRSC18083 | 1.49e6 | 1.44e6 | 1.01e6 | 1.15e6 |
| OtopLc | DRSC18132 | 1.50e6 | 1.50e6 | 1.01e6 | 1.15e6 |
| CG14006 | DRSC02338 | 1.44e6 | 1.38e6 | 1.11e6 | 1.25e6 |
